Assay results: article PMC7229842, “Molecular basis of the multifaceted functions of human leucyl-tRNA synthetase in protein synthesis and beyond” (Nucleic Acids Research, 2020)
Results are given in words; binding and its absence hold for the method and conditions named. Some results given as binding are weak or reduced against the parent protein; the word gives no strength.

Chains of the proteins cited; added tags and fusions are not shown. Lines headed by an entry give the natural chain unless they say otherwise; changes in a name come on top.
UniProt Q15046: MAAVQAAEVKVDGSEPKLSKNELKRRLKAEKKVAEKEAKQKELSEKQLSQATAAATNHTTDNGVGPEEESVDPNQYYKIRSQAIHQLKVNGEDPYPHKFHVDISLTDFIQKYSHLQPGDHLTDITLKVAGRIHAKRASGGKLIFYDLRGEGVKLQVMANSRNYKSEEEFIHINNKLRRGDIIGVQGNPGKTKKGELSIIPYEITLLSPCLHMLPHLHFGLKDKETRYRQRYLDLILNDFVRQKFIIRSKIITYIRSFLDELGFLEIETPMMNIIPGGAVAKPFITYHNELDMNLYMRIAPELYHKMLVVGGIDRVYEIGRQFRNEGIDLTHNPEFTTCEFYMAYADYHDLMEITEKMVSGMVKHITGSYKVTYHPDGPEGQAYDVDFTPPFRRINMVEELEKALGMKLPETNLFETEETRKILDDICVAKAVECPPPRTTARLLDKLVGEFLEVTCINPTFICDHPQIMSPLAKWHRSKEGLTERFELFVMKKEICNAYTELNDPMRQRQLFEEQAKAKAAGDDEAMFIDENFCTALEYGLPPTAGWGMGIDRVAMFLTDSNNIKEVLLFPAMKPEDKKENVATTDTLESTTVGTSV

Experiments:
[1] = molecular target: T1, MRS-AIMP3 complex (human cytosolic methionyl-tRNA synthetase co-expressed with AIMP3) (human) (UniProt P56192+O43324); assay: pull-down; in vitro assembly of the MSC as in a2 but lacking IRS; anti-Flag beads on MRS-Flag; both purified
T1 sequence 1: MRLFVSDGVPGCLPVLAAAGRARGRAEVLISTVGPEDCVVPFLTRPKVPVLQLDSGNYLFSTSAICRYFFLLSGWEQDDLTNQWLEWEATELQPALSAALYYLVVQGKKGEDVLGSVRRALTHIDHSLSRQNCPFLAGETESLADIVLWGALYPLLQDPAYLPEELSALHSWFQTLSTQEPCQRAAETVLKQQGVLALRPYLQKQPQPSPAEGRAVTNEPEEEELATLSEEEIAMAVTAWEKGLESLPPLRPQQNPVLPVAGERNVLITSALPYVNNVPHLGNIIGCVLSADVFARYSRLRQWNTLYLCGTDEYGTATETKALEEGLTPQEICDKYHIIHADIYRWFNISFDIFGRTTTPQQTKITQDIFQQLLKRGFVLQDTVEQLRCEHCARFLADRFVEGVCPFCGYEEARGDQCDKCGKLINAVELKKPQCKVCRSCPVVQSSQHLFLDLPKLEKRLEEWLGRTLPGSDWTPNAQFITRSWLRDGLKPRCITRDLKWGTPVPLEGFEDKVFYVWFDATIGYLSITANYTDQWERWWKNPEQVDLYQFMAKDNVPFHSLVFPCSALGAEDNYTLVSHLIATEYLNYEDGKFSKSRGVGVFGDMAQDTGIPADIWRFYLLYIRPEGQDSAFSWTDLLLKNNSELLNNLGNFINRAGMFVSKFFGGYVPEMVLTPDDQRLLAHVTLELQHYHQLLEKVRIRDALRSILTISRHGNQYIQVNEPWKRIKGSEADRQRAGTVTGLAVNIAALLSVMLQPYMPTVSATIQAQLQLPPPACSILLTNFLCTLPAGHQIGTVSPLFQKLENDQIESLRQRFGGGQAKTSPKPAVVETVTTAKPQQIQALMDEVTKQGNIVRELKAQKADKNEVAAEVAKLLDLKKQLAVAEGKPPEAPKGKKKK
T1 sequence 2: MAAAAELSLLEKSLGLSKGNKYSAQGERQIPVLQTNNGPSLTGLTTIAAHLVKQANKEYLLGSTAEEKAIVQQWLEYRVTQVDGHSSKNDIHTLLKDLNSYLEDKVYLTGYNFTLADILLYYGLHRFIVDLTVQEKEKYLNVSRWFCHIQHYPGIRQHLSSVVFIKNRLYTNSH

[2] = molecular target: T1, MRS-AIMP3 complex (human cytosolic methionyl-tRNA synthetase co-expressed with AIMP3) (human); assay: pull-down; in vitro assembly of the MSC as in a2 but lacking hcLRS; anti-Flag beads on MRS-Flag; both purified
[3] = molecular target: T1, MRS-AIMP3 complex (human cytosolic methionyl-tRNA synthetase co-expressed with AIMP3) (human); assay: pull-down; in vitro assembly of the MSC: all 11 purified components mixed and incubated 2 h, pulled down with anti-Flag beads (only MRS has the Flag tag), checked by SDS-PAGE and gel filtration; both purified

Measured: binding

KRS-AIMP2 complex (human cytosolic lysyl-tRNA synthetase co-expressed with AIMP2) (from UniProt Q15046 1-597; Q13155 1-320)
binds: all assays above
